{
  "source": "the supplement of paper PMC8728848",
  "experiment_in_all_cases": "glycan array binding signal (z-score within array); higher = stronger binding",
  "conditions_in_all_cases": "glycan notation: IUPAC condensed, linker removed",
  "key": {"[1]": {"biological_target": "Gal3S(b1-3)[Fuc(a1-4)]GlcNAc", "outline": "(§1)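 Arrays were curated from the Consortium for Functional Glycomics database, 3228 in total, and kept only where the protein sequence was available. Binding is expressed as a within-array Z-score. This score was averaged across arrays of the same protein sequence at different concentrations or buffers and across linkers, and negative values can be read as non-binding.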"}, "Gal3S(b1-4)Glc": {"biological_target": "Gal3S(b1-4)Glc", "outline": "as §1"}, "Gal3S(b1-4)Glc6S": {"biological_target": "Gal3S(b1-4)Glc6S", "outline": "as §1"}, "Gal3S(b1-4)GlcNAc": {"biological_target": "Gal3S(b1-4)GlcNAc", "outline": "as §1"}, "[2]": {"biological_target": "Gal3S(b1-4)[Fuc(a1-3)]Glc6S", "outline": "as §1"}, "[3]": {"biological_target": "Gal3S(b1-4)[Fuc(a1-3)]GlcNAc", "outline": "as §1"}, "[4]": {"biological_target": "Gal3S(b1-4)[Fuc(a1-3)]GlcNAc6S", "outline": "as §1"}, "Gal3S4S(b1-4)GlcNAc": {"biological_target": "Gal3S4S(b1-4)GlcNAc", "outline": "as §1"}, "Gal3S6S(b1-4)GlcNAc": {"biological_target": "Gal3S6S(b1-4)GlcNAc", "outline": "as §1"}, "Gal3S6S(b1-4)GlcNAc6S": {"biological_target": "Gal3S6S(b1-4)GlcNAc6S", "outline": "as §1"}, "Gal4S(b1-4)GlcNAc": {"biological_target": "Gal4S(b1-4)GlcNAc", "outline": "as §1"}, "Gal4S6S(b1-4)GlcNAc": {"biological_target": "Gal4S6S(b1-4)GlcNAc", "outline": "as §1"}, "Gal6P(b1-4)GlcNAc": {"biological_target": "Gal6P(b1-4)GlcNAc", "outline": "as §1"}, "Gal6S(b1-3)GlcNAc": {"biological_target": "Gal6S(b1-3)GlcNAc", "outline": "as §1"}, "Gal6S(b1-3)GlcNAc6S": {"biological_target": "Gal6S(b1-3)GlcNAc6S", "outline": "as §1"}, "Gal6S(b1-4)Glc": {"biological_target": "Gal6S(b1-4)Glc", "outline": "as §1"}, "Gal6S(b1-4)Glc6S": {"biological_target": "Gal6S(b1-4)Glc6S", "outline": "as §1"}, "Gal6S(b1-4)GlcNAc": {"biological_target": "Gal6S(b1-4)GlcNAc", "outline": "as §1"}, "Gal6S(b1-4)GlcNAc6S": {"biological_target": "Gal6S(b1-4)GlcNAc6S", "outline": "as §1"}, "GalNAc(a1-3)Gal": {"biological_target": "GalNAc(a1-3)Gal", "outline": "as §1"}, "GalNAc(a1-3)GalNAc": {"biological_target": "GalNAc(a1-3)GalNAc", "outline": "as §1"}, "[5]": {"biological_target": "GalNAc(a1-3)GalNAc(b1-3)Gal(a1-4)Gal(b1-4)Glc", "outline": "as §1"}, "[6]": {"biological_target": "GalNAc(a1-3)GalNAc(b1-3)Gal(a1-4)Gal(b1-4)GlcNAc", "outline": "as §1"}, "GalNAc(b1-3)Gal": {"biological_target": "GalNAc(b1-3)Gal", "outline": "as §1"}, "[7]": {"biological_target": "GalNAc(b1-3)Gal(a1-4)Gal(b1-4)GlcNAc", "outline": "as §1"}, "[8]": {"biological_target": "GalNAc(b1-3)Gal(a1-4)Gal(b1-4)GlcNAc(b1-3)Gal(b1-4)Glc", "outline": "as §1"}, "[9]": {"biological_target": "GalNAc(b1-3)Gal(a1-6)Gal(b1-4)Glc", "outline": "as §1"}, "GalNAc(b1-3)GalNAc": {"biological_target": "GalNAc(b1-3)GalNAc", "outline": "as §1"}, "GalNAc(b1-3)GlcNAc": {"biological_target": "GalNAc(b1-3)GlcNAc", "outline": "as §1"}, "GalNAc(b1-4)Gal(b1-4)Glc": {"biological_target": "GalNAc(b1-4)Gal(b1-4)Glc", "outline": "as §1"}, "GalNAc(b1-4)GlcNAc": {"biological_target": "GalNAc(b1-4)GlcNAc", "outline": "as §1"}, "[10]": {"biological_target": "GalNAc(b1-4)GlcNAc(b1-2)Man", "outline": "as §1"}, "[11]": {"biological_target": "GalNAc(b1-4)GlcNAc(b1-2)Man(a1-3)[GalNAc(b1-4)GlcNAc(b1-2)Man(a1-6)]Man(b1-4)GlcNAc(b1-4)GlcNAc", "outline": "as §1"}, "[12]": {"biological_target": "GalNAc(b1-4)GlcNAc(b1-3)GalNAc(b1-4)GlcNAc", "outline": "as §1"}, "GalNAc(b1-4)GlcNAc6S": {"biological_target": "GalNAc(b1-4)GlcNAc6S", "outline": "as §1"}, "GalNAc(b1-6)GalNAc": {"biological_target": "GalNAc(b1-6)GalNAc", "outline": "as §1"}, "GalNAc3S(b1-4)GlcNAc": {"biological_target": "GalNAc3S(b1-4)GlcNAc", "outline": "as §1"}},
  "note": "Some of the results follow.",
  "data": [
    {"binder": "HA-00510 (Pseudomonas aeruginosa), Q02V39_PSEAB (protein) GVPIVNIATPNGAGLSNNHFRDYNVGANGLILNNATGKTQGTQLGGIILGNPNLKGQAAQVILNQVTGGNRSTLAGYTEVAGQSARVIVANPHGITCQGCGFINTPRATLTTGKPIMDGQRLERFQVDGGDIVVEGAELNVGNLEQFDLITRSAKLNAKLYAKNLNIVTGRNDVQADSLQATPRAADGSEKPQLAIDSSALGGMYAGAIRLVGTEQGVGVKLAGDMAASGGDIRIDASGKLSLAQASSQGDLKIAAQAVELNGKTYAGGSAEIRSAEELVNRQS", "values": [
      {"measurement": "glycan array binding signal (z-score)", "setting": "[1]", "value": -0.123},
      {"measurement": "glycan array binding signal (z-score)", "setting": "Gal3S(b1-4)Glc", "value": 0.114},
      {"measurement": "glycan array binding signal (z-score)", "setting": "Gal3S(b1-4)Glc6S", "value": 0.418},
      {"measurement": "glycan array binding signal (z-score)", "setting": "Gal3S(b1-4)GlcNAc", "value": -0.217},
      {"measurement": "glycan array binding signal (z-score)", "setting": "[2]", "value": 0.258},
      {"measurement": "glycan array binding signal (z-score)", "setting": "[3]", "value": 0.486},
      {"measurement": "glycan array binding signal (z-score)", "setting": "[4]", "value": 0.896},
      {"measurement": "glycan array binding signal (z-score)", "setting": "Gal3S4S(b1-4)GlcNAc", "value": -0.526},
      {"measurement": "glycan array binding signal (z-score)", "setting": "Gal3S6S(b1-4)GlcNAc", "value": 0.402},
      {"measurement": "glycan array binding signal (z-score)", "setting": "Gal3S6S(b1-4)GlcNAc6S", "value": 0.86},
      {"measurement": "glycan array binding signal (z-score)", "setting": "Gal4S(b1-4)GlcNAc", "value": -0.364},
      {"measurement": "glycan array binding signal (z-score)", "setting": "Gal4S6S(b1-4)GlcNAc", "value": -0.44},
      {"measurement": "glycan array binding signal (z-score)", "setting": "Gal6P(b1-4)GlcNAc", "value": -1.59},
      {"measurement": "glycan array binding signal (z-score)", "setting": "Gal6S(b1-3)GlcNAc", "value": -0.953},
      {"measurement": "glycan array binding signal (z-score)", "setting": "Gal6S(b1-3)GlcNAc6S", "value": -0.403},
      {"measurement": "glycan array binding signal (z-score)", "setting": "Gal6S(b1-4)Glc", "value": 0.154},
      {"measurement": "glycan array binding signal (z-score)", "setting": "Gal6S(b1-4)Glc6S", "value": -0.594},
      {"measurement": "glycan array binding signal (z-score)", "setting": "Gal6S(b1-4)GlcNAc", "value": -0.516},
      {"measurement": "glycan array binding signal (z-score)", "setting": "Gal6S(b1-4)GlcNAc6S", "value": 1.41},
      {"measurement": "glycan array binding signal (z-score)", "setting": "GalNAc(a1-3)Gal", "value": 0.138},
      {"measurement": "glycan array binding signal (z-score)", "setting": "GalNAc(a1-3)GalNAc", "value": -0.842},
      {"measurement": "glycan array binding signal (z-score)", "setting": "[5]", "value": 0.53},
      {"measurement": "glycan array binding signal (z-score)", "setting": "[6]", "value": 1.03},
      {"measurement": "glycan array binding signal (z-score)", "setting": "GalNAc(b1-3)Gal", "value": -0.69},
      {"measurement": "glycan array binding signal (z-score)", "setting": "[7]", "value": -0.153},
      {"measurement": "glycan array binding signal (z-score)", "setting": "[8]", "value": -0.536},
      {"measurement": "glycan array binding signal (z-score)", "setting": "[9]", "value": -0.551},
      {"measurement": "glycan array binding signal (z-score)", "setting": "GalNAc(b1-3)GalNAc", "value": -0.859},
      {"measurement": "glycan array binding signal (z-score)", "setting": "GalNAc(b1-3)GlcNAc", "value": 0.295},
      {"measurement": "glycan array binding signal (z-score)", "setting": "GalNAc(b1-4)Gal(b1-4)Glc", "value": -0.476},
      {"measurement": "glycan array binding signal (z-score)", "setting": "GalNAc(b1-4)GlcNAc", "value": 1.48},
      {"measurement": "glycan array binding signal (z-score)", "setting": "[10]", "value": -1.01},
      {"measurement": "glycan array binding signal (z-score)", "setting": "[11]", "value": 0.732},
      {"measurement": "glycan array binding signal (z-score)", "setting": "[12]", "value": -0.032},
      {"measurement": "glycan array binding signal (z-score)", "setting": "GalNAc(b1-4)GlcNAc6S", "value": -0.03},
      {"measurement": "glycan array binding signal (z-score)", "setting": "GalNAc(b1-6)GalNAc", "value": 0.244},
      {"measurement": "glycan array binding signal (z-score)", "setting": "GalNAc3S(b1-4)GlcNAc", "value": 0.203}
    ]}
  ]
}
